One substance from PMC10089821 can be followed below.

The chains behind the UniProt entries cited, without tags or fusion partners.
UniProt P40763: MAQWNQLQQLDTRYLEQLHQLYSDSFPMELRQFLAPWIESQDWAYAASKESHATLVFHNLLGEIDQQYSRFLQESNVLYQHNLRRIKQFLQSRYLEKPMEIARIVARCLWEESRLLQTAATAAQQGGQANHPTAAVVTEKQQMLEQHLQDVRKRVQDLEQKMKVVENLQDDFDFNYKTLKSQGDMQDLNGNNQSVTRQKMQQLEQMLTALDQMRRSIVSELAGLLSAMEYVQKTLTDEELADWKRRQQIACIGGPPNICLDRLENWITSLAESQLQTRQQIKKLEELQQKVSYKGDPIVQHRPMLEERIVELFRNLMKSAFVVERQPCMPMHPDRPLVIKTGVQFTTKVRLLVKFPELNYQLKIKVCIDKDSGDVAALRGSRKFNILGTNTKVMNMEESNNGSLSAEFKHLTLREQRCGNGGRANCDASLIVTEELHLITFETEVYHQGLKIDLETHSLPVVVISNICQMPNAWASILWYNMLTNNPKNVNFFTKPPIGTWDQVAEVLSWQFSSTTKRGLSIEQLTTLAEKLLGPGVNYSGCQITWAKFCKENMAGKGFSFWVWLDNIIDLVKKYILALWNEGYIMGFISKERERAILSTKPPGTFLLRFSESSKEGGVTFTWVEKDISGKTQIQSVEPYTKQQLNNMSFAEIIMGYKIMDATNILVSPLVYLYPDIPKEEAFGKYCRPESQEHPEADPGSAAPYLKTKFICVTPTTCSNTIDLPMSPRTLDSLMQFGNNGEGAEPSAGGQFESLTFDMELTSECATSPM

These are yes or no findings as the source states them, for the method shown. Binding seen in cells or lysates may run through a third protein.

The assay addresses T1, ETV7 (UniProt Q9Y603).
T1 sequence: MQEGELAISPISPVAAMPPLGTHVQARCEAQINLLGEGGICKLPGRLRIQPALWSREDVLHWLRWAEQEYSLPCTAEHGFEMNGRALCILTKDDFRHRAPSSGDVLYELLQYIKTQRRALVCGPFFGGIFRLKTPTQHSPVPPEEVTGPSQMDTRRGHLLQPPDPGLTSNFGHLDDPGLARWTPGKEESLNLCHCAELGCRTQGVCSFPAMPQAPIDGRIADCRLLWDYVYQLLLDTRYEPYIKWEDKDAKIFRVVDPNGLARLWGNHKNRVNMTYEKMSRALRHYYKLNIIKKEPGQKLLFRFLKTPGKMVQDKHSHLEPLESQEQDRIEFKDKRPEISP
Description: co-IP; MCF7-Empty/ETV7 or T47D-Empty/ETV7 cells treated with 20 ng/ml IL-6 for 4 h, lysed in CHAPS buffer; incubated overnight with anti-ETV7 antibody (TEL2) or normal mouse IgG bound to protein G Dynabeads; Western blot for phosphorylated STAT3.

For the substance “phosphorylated STAT3 (from UniProt P40763 1-770)”, the binding entry is on record as “no binding”.
